Results are given in words; binding and its absence hold for the method and conditions named. Binding seen in cells or lysates may run through a third protein. A result given as binding can be weak or reduced; the word gives no strength.
Molecular target: HIV-1-LAI Nef (HIV-1 (strain LAI)) (UniProt P03406)
Assay: co-IP; CHO cells cotransfected with HA-tagged Nef and ACOT8 constructs, 48 h; non-denaturing lysis buffer (10 mM Tris-HCl pH 7.5, 5 mM EDTA, 150 mM NaCl, 1% Triton X-100); anti-HA antibody overnight at 4 °C, protein G Dynabeads; blot with anti-ACOT8 antibody

Chains of the proteins cited; added tags and fusions are not shown. Lines headed by an entry give the natural chain unless they say otherwise; changes in a name come on top.
UniProt O14734: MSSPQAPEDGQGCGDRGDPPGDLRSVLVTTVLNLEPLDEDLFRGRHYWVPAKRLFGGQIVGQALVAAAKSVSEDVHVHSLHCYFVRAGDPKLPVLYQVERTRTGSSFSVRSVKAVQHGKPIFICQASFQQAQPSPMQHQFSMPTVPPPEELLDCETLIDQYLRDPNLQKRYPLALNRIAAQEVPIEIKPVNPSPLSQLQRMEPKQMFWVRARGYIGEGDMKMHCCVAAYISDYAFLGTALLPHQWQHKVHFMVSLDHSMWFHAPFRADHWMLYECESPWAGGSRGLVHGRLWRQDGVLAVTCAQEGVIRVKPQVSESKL

Substance | binding
ACOT8 pΔPAK mutant (point deletion of Lys52) (from UniProt O14734) (enzyme) | binds
ACOT8 pΔPK mutant (Lys91 to Ser91) (from UniProt O14734) (enzyme) | no binding
